Source: PubChem BioAssay AID463193 (University of Pittsburgh Molecular Library Screening Center, 2010)
Some of the results follow.

Assay: GFP-LC3 puncta formation changes – imaging, high-content, MEF GFP-LC3, primary screen (AID 463193);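 note: cell loss after 18 h compound exposure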
Conditions: autophagy, measured here: cell loss, nuclei count, at 10 µM
In the case of COc1ccc(NC2CCN(CCc3ccccc3)CC2)c(OC)c1, the toxicity was 9.73%.
Compound COc1ccc(C(=O)NCC2(N3CCCCC3)CCCCC2)c(OC)c1OC has a toxicity of 21.3%.
For O=C(NCC1(N2CCOCC2)CCCCC1)c1cc2ccccc2o1, the toxicity was -29.7%.
In the case of CCOC(=O)N1CCC(Nc2ccc(OC)cc2)CC1, the toxicity was -5.05%.
O=C(OC1CN2CCC1CC2)C1c2ccccc2Oc2ccccc21 (stereo not given) showed a toxicity of 7.17%.
CN(C)c1cccc(C(=O)NCC2(N3CCCCC3)CCCCC2)c1 showed a toxicity of 9.76%.
With COc1ccc(CN(CCCl)CCCl)cc1Cl the toxicity was -7.03%.
With CC(C)c1ccc(NC2CCN(C(=O)OC(C)(C)C)CC2)cc1 the toxicity was -1.76%.
CN1CCC(Nc2cccc(F)c2)CC1 showed a toxicity of 5.94%.
With O=C(NCC1(N2CCCCC2)CCCCC1)c1cccc([N+](=O)[O-])c1 the toxicity was -2.61%.
Compound N#CC1(Nc2ccccc2)CCN(CCc2ccccc2)CC1 has a toxicity of 36.2%.
CN1CCN(CCOC(=O)C(O)(c2ccccc2)c2ccccc2)CC1 gave a toxicity of -6.45%.
COc1ccc(NC2CCN(C(=O)OC(C)(C)C)CC2)cc1 gave a toxicity of 1.72%.
For O=C(NCC1(N2CCOCC2)CCCCC1)c1cc(=O)[nH]c2ccccc12, the toxicity was -2.77%.
For N#Cc1ccc(C(=O)NCC2(N3CCCCC3)CCCCC2)cc1, the toxicity was -10.2%.
Work on c1ccc(CN2CCC(Nc3ccccc3)CC2)cc1 yielded a toxicity of 12.1%.
Work on COc1ccc(C(=O)NCC2(N3CCOCC3)CCCCC2)cc1OC yielded a toxicity of -0.911%.
For N/C(=N\O)c1c(N)no[n+]1[O-], the toxicity was -7.29%.
For O=C(OC1CN2CCC1CC2)C1c2ccccc2C=Cc2ccccc21 (stereo not given), the toxicity was -0.54%.
For CCOc1ncccc1C(=O)NCC1(N2CCOCC2)CCCCC1, the toxicity was 10.5%.
For CC(C)(C)OC(=O)N1CCC(Nc2ccccc2)CC1, the toxicity was -1.03%.
In the case of CCC(CO)(C(=O)OC1CN2CCC1CC2)c1ccccc1 (stereo not given), the toxicity was -8.08%.
Compound COc1cc(OC)cc(C(=O)NCC2(N3CCOCC3)CCCCC2)c1 has a toxicity of 0.615%.
With CCN1CCC(Nc2cccc(F)c2)CC1 the toxicity was 10.6%.
Work on CN(C)c1ccc(C(=O)NCC2(N3CCCCC3)CCCCC2)cc1 yielded a toxicity of 2.05%.
